For this experiment, the target named is Fibroblast growth factor receptor 2 (FGFR2), C-terminally labelled with GFP or mCherry (UniProt P21802). Nature of the experiment: FRET or BRET; serum-starved HEK293T transfected with FGFR2-GFP (donor) and FGFR2-mCherry (acceptor); confocal images of fixed cells, GFP 488/518 nm, mCherry 555/585 nm, FRET 488/585 nm; control (SC) and GRB2-depleted (G1) cells.

The chains behind the UniProt entries cited, without tags or fusion partners. Residues count along the entry.
UniProt P21802, residues 22-821: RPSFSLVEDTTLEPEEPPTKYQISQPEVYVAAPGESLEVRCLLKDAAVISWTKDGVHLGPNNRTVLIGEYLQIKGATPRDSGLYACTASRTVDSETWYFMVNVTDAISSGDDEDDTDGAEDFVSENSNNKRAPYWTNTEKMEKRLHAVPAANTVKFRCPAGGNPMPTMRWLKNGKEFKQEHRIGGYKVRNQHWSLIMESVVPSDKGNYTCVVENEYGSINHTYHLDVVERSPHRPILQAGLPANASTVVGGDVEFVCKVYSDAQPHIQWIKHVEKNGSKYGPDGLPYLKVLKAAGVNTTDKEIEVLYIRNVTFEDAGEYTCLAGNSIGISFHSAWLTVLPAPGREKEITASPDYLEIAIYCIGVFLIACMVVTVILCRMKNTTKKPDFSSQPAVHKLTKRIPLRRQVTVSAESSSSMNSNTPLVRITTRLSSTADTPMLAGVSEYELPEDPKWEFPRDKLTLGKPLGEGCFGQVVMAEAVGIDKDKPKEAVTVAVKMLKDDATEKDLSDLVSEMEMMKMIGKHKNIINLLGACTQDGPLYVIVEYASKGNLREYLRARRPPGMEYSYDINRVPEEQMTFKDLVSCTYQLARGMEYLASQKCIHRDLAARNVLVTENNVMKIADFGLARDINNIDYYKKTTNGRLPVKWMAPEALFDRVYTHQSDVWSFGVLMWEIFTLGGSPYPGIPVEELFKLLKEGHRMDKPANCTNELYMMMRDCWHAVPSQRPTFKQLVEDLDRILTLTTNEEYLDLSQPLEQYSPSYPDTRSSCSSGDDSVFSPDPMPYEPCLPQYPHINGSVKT

Results are given in words; binding and its absence hold for the method and conditions named. Binding seen in cells or lysates may run through a third protein. Some entries that bind do so weakly or less than the wild type.

Regarding “Fibroblast growth factor receptor 2 (FGFR2), C-terminally labelled with GFP or mCherry (from UniProt P21802 22-821)”, the binding entry is “binds”.

(Values after paper PMC7969938.)
